Assay results: patent US11104735B2, “Inhibition of cytokine-induced SH2 protein in NK cells” (The Walter and Eliza Hall Institute of Medical Research, priority 2015, dated 2021)
For at least one compound, name, drawing or mass did not settle the structure.

Tested on: LWT1 melanoma cells
Test: LWT1 experimental lung metastasis
Type: in vivo, mouse
Details: Cish−/− mice, 7.5×10^5 cells i.v., day 14
Procedure: Mice were monitored for tumor development and were euthanized at the point of abdominal swelling and discomfort. Improved survival between groups was assessed by the Log-rank Mantel-Cox test. (D) Groups of 5-15 B6.WT (Cish^+/+) or B6.Cish^-/- mice were injected i.v. with 5×10^5 RM-1 prostate carcinoma cells and treated with either cIg, anti-CD96, anti-PD-1, anti-CTLA-4 or anti-PD1/anti-CTLA-4 combination (250 μg i.p. each on days 0 and 3). (E) Groups of 8-10 B6.WT (Cish^+1 or B6.Cish^-/- mice were injected i.v. with 7.5×10^5 B16F10 melanoma cells and treated with either 250 μg cIg or anti-CD96 mAb (i.p. on days 0 and 3). (F) Groups of 5-6 B6.WT (Cish^+1 or B6.Cish^-/- mice were injected i.v. with 7.5×10^5 LWT1 melanoma cells and treated with either vehicle or PLX4720 (10 mg/kg i.p., daily from day 0 to 6). Lungs were harvested on (A, D, F) day 14 or (B, E) day 13 and macrometastases counted. Individual mice are shown by each symbol and the results are plotted as mean±SEM. Statistically significant differences as indicated were determined by one-way ANOVA with Tukey post-test (for multiple comparisons) (*: […]; **: p<0.01; ***: p<0.001; ****: p<0.0001). […] Lungs were harvested on day 14 and macrometastases counted. […] Lungs were harvested on day 14 and either fixed in Bouin's solution and B16F10 metastases counted^44 or analysed for NK cell expansion by flow cytometry. […]

With `CC(=O)Nc1cccc(-n2c(=O)n(C3CC3)c(=O)c3c(Nc4ccc(I)cc4F)n(C)c(=O)c(C)c32)c1` [trametinib] the LWT1 lung metastasis was “further reduced”.
